Laboratory results: US20250297232A1, “BACTERIAL MYELOPEROXIDASE-CATALASE AND APPLICATIONS THEREOF” (UNIVERSITÉ DE BORDEAUX, priority 2022, published 2025)
The name of at least one read-out is uncertain.

Tested on: Rhodopirellula baltica RbMPO, wild type, SEQ ID NO: 1
Test: Pre-steady-state kinetics: compound I formation and return to native state (stopped-flow, 412 nm)
Assay type: biochemical
Details: wt RbMPO […], H2O2 20 μM, 37° C., pH7.5; read-out: K1/2 (return to native state)
Method: In the first moment after an enzyme is mixed with a substrate, no product has been formed and no intermediates exist. The study of the next few milliseconds of the reaction is called pre-steady-state kinetics.
Kinetic parameters under pre-steady-state condition were performed with a Biologic SFM400 stopped-flow at 412 nm, 37° C. and with 50 mM sodium phosphate buffer at pH7.5. […] An exponential linear fit was applied to each kinetic using the following formula: […]
where p1 corresponds to the exponential magnitude, p2 to the decay time Tau (s) and
The heme Soret band is at 412 nm for the native Fe^III iron form, which is why the decrease in absorbance was followed at this particular wavelength as a function of time. The rate constant was measured using the A412nm curves as a function of time (data not shown). By applying Eq.4 to the exponential part of each kinetic, the values of Tau (s) were determined and the kobs (s^−1) were calculated.
The return of the enzyme to its native state was studied by the impact of increasing concentrations of (pseudo)-halides substrates on compound I (FIG. 9B). […] It is the time difference (s) between the two characteristic steps that allowed the calculation of the values of the Vreturn(μM^−1.s^−1) values: […]

I [I^−]
Km: 310 ± 50 µM
